Data as given in publication PMC10404246.
These are yes or no findings as the source states them, for the method shown. In cells and extracts the contact can be indirect. Some binding calls cover weakened binding; strength is not graded here.

By UniProt entry, the sequences of proteins in these tests, tags left out.
UniProt P15924: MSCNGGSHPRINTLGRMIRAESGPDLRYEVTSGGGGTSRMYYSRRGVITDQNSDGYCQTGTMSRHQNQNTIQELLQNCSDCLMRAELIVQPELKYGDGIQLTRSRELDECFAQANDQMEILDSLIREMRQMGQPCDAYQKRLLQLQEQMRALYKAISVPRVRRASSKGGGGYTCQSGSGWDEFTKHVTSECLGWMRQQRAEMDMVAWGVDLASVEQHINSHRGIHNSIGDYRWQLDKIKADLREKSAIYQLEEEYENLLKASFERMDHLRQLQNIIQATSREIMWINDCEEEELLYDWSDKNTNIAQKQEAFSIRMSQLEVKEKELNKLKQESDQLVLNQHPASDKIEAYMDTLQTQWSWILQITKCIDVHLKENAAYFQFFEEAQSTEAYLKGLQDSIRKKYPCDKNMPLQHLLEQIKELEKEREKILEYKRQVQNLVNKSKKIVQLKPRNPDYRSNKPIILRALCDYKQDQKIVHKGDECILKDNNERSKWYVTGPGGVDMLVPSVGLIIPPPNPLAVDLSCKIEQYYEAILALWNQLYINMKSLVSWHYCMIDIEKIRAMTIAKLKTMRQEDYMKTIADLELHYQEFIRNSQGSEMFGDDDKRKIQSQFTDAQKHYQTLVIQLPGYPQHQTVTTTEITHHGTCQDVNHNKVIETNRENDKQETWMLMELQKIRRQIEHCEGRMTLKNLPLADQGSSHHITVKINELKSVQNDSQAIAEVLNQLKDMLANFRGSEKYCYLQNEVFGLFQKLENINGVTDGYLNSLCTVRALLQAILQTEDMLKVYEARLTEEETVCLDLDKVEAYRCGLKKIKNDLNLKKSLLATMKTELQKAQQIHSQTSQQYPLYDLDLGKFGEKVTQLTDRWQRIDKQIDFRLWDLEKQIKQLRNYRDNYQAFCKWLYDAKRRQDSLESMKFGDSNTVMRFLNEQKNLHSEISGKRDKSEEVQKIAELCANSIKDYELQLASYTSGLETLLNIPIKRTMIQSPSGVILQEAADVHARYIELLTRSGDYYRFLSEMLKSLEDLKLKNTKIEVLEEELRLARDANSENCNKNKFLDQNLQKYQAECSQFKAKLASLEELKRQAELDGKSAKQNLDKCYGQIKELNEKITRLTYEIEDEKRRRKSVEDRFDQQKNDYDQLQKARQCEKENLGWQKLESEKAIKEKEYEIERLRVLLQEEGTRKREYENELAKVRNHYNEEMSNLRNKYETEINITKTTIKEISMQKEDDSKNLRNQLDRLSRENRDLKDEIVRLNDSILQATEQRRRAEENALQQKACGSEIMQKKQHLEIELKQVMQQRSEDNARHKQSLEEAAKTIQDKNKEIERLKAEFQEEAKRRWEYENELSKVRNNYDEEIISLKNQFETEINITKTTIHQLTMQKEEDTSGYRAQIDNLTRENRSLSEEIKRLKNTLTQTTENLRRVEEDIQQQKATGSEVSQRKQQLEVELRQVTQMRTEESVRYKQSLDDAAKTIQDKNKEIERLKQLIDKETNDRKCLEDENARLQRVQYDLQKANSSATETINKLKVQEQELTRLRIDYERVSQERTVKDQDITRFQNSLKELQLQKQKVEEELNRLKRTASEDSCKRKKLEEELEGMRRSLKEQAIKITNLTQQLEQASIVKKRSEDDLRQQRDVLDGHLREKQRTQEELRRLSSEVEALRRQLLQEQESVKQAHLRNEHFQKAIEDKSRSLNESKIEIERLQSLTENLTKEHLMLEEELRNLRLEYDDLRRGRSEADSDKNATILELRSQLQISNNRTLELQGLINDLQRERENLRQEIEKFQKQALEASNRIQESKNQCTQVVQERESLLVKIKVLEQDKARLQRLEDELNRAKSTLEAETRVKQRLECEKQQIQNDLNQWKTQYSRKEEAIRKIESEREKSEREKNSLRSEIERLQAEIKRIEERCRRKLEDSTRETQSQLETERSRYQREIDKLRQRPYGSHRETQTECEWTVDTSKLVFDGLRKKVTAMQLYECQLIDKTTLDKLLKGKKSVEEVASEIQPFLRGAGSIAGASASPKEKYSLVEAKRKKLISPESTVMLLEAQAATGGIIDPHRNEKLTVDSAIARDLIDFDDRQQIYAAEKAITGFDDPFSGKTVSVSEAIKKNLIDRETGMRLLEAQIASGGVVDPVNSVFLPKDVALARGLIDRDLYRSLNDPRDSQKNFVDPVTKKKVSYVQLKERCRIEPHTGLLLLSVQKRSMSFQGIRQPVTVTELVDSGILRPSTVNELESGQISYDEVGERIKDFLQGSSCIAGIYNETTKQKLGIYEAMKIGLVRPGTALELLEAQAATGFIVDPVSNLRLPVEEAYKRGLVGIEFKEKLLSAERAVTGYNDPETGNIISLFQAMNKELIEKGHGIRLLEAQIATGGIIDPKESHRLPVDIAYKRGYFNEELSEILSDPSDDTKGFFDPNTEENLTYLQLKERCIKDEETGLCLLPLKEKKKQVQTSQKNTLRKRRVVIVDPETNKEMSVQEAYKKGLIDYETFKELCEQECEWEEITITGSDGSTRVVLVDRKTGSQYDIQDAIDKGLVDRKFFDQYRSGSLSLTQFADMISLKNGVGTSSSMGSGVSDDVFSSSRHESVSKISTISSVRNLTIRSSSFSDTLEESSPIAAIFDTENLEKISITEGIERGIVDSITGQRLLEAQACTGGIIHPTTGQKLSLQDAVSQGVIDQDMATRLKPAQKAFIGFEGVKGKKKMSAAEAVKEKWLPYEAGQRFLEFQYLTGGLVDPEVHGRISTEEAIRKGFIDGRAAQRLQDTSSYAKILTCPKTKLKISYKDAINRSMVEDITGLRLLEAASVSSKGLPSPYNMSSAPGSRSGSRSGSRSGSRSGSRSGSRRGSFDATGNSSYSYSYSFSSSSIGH

Target: T1, PP2A regulatory subunit B55α (human (endogenous in SCC9, NHEK and human skin)) (UniProt P63151)
T1 sequence: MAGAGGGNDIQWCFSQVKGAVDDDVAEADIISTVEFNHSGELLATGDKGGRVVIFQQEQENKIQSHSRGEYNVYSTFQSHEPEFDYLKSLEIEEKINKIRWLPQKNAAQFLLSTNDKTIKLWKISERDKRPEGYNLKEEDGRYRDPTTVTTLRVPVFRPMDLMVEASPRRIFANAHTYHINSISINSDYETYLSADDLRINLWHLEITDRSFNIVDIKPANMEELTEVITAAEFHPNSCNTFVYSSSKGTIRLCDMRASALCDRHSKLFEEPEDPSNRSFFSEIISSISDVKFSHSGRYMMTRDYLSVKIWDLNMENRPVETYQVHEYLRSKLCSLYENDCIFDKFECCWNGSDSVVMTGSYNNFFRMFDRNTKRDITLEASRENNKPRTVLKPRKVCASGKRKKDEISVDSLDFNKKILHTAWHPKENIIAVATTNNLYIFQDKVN
Assay: co-IP; endogenous B55α precipitated with anti-B55α antibody conjugated to agarose from SCC9 and NHEK lysates (NP40 buffer), overnight at 4 °C; blotted for DP or Dsg3

Q: For “desmoplakin (from UniProt P15924 1-2871)”, which binding is on record?
A: Its binding is “binds”.
